According to PMC8745574:
No constants are given. Whether binding was seen depends on the method and setting. For some of these results: Binding calls can cover weak binding; strength is not graded here. For some of these results: Binding seen in cells or lysates may run through a third protein. For some of these results: Where a sequence is shown, tags or fusion partners need not be part of it. Values belong to the molecule of their own block, whether it stands above or below them.

By UniProt entry, the sequences of proteins in these tests, tags left out. Where a name states a change or a piece, a line headed by the entry shows the natural chain unless it says otherwise.
UniProt Q84J78: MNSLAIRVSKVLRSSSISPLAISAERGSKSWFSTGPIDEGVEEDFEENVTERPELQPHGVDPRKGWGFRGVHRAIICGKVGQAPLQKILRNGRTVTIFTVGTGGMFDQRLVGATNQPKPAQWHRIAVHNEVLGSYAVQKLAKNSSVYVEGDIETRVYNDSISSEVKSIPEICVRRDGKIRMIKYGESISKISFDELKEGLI
UniProt Q9LXU1: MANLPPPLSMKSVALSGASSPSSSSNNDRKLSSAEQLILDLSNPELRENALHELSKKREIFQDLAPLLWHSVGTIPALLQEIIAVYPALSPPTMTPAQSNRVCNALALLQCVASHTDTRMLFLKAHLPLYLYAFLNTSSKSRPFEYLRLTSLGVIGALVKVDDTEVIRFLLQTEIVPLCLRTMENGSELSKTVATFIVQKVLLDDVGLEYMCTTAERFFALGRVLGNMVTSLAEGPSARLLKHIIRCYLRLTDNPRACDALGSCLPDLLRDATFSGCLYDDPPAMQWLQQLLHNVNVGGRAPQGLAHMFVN
UniProt Q9LF51: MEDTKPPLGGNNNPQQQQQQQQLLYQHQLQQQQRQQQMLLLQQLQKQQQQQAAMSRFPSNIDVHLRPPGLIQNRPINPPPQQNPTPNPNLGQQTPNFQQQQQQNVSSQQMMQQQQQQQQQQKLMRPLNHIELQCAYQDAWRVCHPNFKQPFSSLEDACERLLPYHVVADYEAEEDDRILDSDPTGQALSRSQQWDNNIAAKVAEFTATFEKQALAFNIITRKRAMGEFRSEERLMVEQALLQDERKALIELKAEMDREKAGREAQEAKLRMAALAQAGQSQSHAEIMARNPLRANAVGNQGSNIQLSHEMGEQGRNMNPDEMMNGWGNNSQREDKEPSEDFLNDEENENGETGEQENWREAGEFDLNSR
UniProt Q9FMT4: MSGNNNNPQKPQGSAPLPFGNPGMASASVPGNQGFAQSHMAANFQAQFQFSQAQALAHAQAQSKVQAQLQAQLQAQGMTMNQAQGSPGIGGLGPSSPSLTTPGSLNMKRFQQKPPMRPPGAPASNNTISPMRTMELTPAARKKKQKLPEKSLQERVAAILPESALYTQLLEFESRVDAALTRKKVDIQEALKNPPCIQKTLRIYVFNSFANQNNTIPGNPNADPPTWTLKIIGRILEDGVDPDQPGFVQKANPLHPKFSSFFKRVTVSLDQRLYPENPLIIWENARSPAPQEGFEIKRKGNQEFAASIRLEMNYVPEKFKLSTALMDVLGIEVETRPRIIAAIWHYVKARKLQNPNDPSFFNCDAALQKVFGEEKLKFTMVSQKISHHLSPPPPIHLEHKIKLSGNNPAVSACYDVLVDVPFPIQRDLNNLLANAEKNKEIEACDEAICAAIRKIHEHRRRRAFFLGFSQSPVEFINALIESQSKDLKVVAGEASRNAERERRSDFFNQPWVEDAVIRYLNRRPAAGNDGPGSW

How the values were obtained:
[1] = molecular target: T1, cYFP-POT1a (N. benthamiana) (Arabidopsis thaliana) (UniProt Q56Y52); assay: split reporter; BiFC, nYFP/cYFP constructs (pE-SPYNE-GW, pE-SPYCE-GW, pC-SPYNE-GW) transiently expressed in N. benthamiana leaves, confocal microscopy after 3 days
T1 sequence: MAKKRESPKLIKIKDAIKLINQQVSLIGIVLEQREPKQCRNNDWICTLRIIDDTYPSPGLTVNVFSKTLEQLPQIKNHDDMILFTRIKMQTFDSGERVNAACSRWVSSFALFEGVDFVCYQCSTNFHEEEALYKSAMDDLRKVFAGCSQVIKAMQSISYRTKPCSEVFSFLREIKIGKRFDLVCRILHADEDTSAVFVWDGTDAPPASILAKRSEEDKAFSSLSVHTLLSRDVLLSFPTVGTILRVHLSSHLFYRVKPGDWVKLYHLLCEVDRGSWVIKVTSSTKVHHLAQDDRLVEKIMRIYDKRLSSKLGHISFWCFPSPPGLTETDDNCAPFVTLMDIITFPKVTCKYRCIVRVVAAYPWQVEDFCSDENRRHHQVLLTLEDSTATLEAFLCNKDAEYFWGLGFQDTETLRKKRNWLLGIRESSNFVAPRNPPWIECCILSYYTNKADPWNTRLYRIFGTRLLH

[2] = molecular target: T2, POT1a (Arabidopsis thaliana) (UniProt Q56Y52); assay: two-hybrid; Matchmaker GAL4 system, pGADT7-DEST/pGBKT7-DEST, S. cerevisiae PJ69-4α, 30 °C; growth on -LWH plates (with increasing 3-aminotriazol) and -LWHAde plates
T2 sequence: T1 sequence

[3] = molecular target: T3, AtTERT TEN construct (1-233 aa) (Arabidopsis thaliana) (UniProt Q9SPU7); assay: as above
T3 sequence: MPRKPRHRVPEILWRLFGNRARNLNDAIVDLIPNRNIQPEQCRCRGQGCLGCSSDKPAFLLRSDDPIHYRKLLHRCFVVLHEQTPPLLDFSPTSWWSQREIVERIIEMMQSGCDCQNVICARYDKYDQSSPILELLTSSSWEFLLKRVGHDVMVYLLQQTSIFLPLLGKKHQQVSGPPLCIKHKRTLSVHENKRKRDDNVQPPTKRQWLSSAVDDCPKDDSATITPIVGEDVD

[4] = molecular target: T4, AtTERT RID construct (1-271 aa) (Arabidopsis thaliana) (UniProt Q9SPU7); assay: as above
T4 sequence: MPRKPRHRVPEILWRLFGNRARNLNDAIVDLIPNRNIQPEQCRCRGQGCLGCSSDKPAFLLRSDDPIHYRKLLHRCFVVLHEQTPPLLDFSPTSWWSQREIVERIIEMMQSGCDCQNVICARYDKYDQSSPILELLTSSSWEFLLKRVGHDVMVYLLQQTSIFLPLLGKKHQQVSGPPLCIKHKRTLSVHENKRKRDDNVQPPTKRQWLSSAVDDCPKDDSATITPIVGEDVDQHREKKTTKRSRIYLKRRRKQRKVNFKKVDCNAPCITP

[5] = molecular target: T5, actin-related protein 4 (ARP4) (Arabidopsis thaliana) (UniProt Q84M92); assay: as above
T5 sequence: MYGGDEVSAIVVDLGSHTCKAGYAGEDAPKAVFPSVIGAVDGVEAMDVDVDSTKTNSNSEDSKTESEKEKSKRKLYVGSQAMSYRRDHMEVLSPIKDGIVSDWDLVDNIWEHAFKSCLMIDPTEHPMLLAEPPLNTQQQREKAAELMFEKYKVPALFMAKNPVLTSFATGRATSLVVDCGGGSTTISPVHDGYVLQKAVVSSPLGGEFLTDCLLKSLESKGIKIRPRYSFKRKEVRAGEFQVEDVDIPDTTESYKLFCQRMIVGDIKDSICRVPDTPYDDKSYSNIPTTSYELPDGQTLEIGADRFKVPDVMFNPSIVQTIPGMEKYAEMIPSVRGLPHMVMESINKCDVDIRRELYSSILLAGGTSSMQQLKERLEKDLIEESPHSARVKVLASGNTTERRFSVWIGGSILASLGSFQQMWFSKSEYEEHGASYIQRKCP

[6] = molecular target: T6, high-mobility-group B4 (HMGB4) protein (Arabidopsis thaliana) (UniProt Q42344); assay: as above
T6 sequence: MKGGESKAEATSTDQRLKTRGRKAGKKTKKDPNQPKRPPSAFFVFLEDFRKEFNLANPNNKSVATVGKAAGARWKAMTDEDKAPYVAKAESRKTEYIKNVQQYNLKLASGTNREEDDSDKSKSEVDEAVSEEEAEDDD

[7] = molecular target: T7, cYFP-RID (Arabidopsis protoplasts) (Arabidopsis thaliana) (UniProt Q9SPU7); assay: split reporter; BiFC, pSAT1-nEYFP-C1/pSAT1-cEYFP-C1-B constructs in Arabidopsis protoplasts, confocal microscopy 16 h after transfection
T7 sequence: T4 sequence

[8] = molecular target: T8, NRP1 (Arabidopsis thaliana) (UniProt Q9CA59); assay: two-hybrid; Matchmaker GAL4 system, pGADT7-DEST/pGBKT7-DEST, S. cerevisiae PJ69-4α, 30 °C; growth on -LWH plates (with increasing 3-aminotriazol) and -LWHAde plates
T8 sequence: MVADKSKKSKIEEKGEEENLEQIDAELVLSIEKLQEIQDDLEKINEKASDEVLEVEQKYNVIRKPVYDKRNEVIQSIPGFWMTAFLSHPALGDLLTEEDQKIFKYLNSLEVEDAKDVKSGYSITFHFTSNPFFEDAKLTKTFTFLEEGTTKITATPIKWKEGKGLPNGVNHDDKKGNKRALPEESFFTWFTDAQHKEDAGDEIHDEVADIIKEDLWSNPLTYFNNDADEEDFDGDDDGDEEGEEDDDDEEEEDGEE

[9] = molecular target: T9, NRP2 (Arabidopsis thaliana) (UniProt Q8LC68); assay: as above
T9 sequence: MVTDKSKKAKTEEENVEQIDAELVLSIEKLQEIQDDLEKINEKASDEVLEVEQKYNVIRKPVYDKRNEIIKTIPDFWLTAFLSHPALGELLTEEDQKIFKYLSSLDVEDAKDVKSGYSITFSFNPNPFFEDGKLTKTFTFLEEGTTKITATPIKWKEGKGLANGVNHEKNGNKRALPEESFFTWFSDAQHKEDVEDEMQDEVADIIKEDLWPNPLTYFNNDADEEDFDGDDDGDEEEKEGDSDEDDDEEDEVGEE

[10] = molecular target: c-myc-tagged MtGP1, in vitro translated (Arabidopsis thaliana) (UniProt Q9LZM6); assay: co-IP; both proteins translated in vitro in rabbit reticulocyte lysate; 35S-Met labelled prey mixed with c-myc- or HA-tagged bait in 25 mM HEPES pH 7.5, 150 mM KCl, 5 mM MgCl2, 0.1% Nonidet P-40; anti-c-myc or anti-HA magnetic beads
[11] = molecular target: DOMINO1 (Arabidopsis thaliana); assay: two-hybrid; Matchmaker GAL4 system, pGADT7-DEST/pGBKT7-DEST, S. cerevisiae PJ69-4α, 30 °C; growth on -LWH plates (with increasing 3-aminotriazol) and -LWHAde plates
[12] = molecular target: nYFP-DOMINO1 (Arabidopsis thaliana); assay: split reporter; BiFC, pSAT1-nEYFP-C1/pSAT1-cEYFP-C1-B constructs in Arabidopsis protoplasts, confocal microscopy 16 h after transfection
[13] = molecular target: HA-tagged DOMINO1, in vitro translated (Arabidopsis thaliana); assay: co-IP; both proteins translated in vitro in rabbit reticulocyte lysate; 35S-Met labelled prey mixed with c-myc- or HA-tagged bait in 25 mM HEPES pH 7.5, 150 mM KCl, 5 mM MgCl2, 0.1% Nonidet P-40; anti-c-myc or anti-HA magnetic beads

binding [1]: binds
Molecule: MtSSB-nYFP (Arabidopsis thaliana)

binding [2]: binds
Molecule: MTSSB (mitochondrially targeted single-stranded DNA binding) (from UniProt Q84J78)

binding [2]: no binding
Molecule: OB-fold-like protein AT2G40660 (Arabidopsis thaliana)

binding [2]: binds weakly
binding [3]: binds weakly
Molecule: Rcd1-like protein AT5G12980 (from UniProt Q9LXU1)

binding [4]: no binding
Molecule: NOP56-like protein (NOP56L) (Arabidopsis thaliana)

binding [2]: no binding
Molecule: putative DNA helicase AT2G03270 (Arabidopsis thaliana)

binding [2]: binds
binding [4]: binds weakly
binding [3]: binds weakly
Molecule: DOMINO1 (Arabidopsis thaliana)

binding [2]: binds
binding [3]: binds
Molecule: AT3G12210 protein (Arabidopsis thaliana)

binding [2]: binds
Molecule: mediator of RNA polymerase II transcription subunit-like protein AT3G03460 (from UniProt Q9SRQ0)

binding [2]: no binding
binding [8]: binds
binding [5]: no binding
binding [6]: no binding
binding [9]: binds
Molecule: histone1-like protein HON4 (Arabidopsis thaliana)

binding [10]: binds
B1: RID, radioactively labelled, in vitro translated (domain or fragment, UniProt Q9SPU7 1-271)
chain: T4 sequence
modifications: 35S-Met labelled

binding [11]: binds
B2: LSm4 (LIKE Sm 4) (protein, UniProt F4K4E3 1-129)
chain: MLPLSLLKTAQGHPMLVELKNGETYNGHLVNCDTWMNIHLREVICTSKDGDRFWRMPECYIRGNTIKYLRVPDEVIDKVQEEKTRTDRKPPGVGRGRGRGVDDGGARGRGRGTSMGKMGGNRGAGRGRG

binding [12]: no binding
B3: LSm4 BiFC construct (protoplasts) (protein, UniProt F4K4E3 1-129)
chain: B2 chain

More lines, now with the values behind:

Molecule: SSB1 (single-stranded DNA binding 1) (Arabidopsis thaliana)
binding [2]: binds

Molecule: hypersensitive induced reaction protein HIRP4 (Arabidopsis thaliana)
binding [2]: binds
binding [3]: binds

Molecule: hypersensitive induced reaction protein HIRP2 (Arabidopsis thaliana)
binding [2]: binds
binding [3]: binds

Molecule: mediator of RNA polymerase II transcription subunit-like protein AT5G17510 (from UniProt Q9LF51)
binding [2]: binds

Molecule: chromodomain remodeling complex protein 1 (CHC1) (from UniProt Q9FMT4)
binding [2]: binds weakly
binding [5]: binds
binding [4]: binds weakly
binding [6]: no binding
binding [3]: binds

Molecule: NOP58-like protein (NOP58L) (Arabidopsis thaliana)
binding [4]: no binding

Molecule: nYFP-HIRP2 (Arabidopsis thaliana)
binding [7]: binds

Molecule: DEAH2 (Arabidopsis thaliana)
binding [2]: no binding

B4: LSm4, radioactively labelled, in vitro translated (protein, UniProt F4K4E3 1-129)
chain: B2 chain
modifications: 35S-Met labelled
binding [13]: no binding

B5: FIB2 (protein, UniProt Q94AH9 1-320)
chain: MRPPLTGSGGGFSGGRGRGGYSGGRGDGGFSGGRGGGGRGGGRGFSDRGGRGRGRGPPRGGARGGRGPAGRGGMKGGSKVIVEPHRHAGVFIAKGKEDALVTKNLVPGEAVYNEKRISVQNEDGTKTEYRVWNPFRSKLAAAILGGVDNIWIKPGAKVLYLGAASGTTVSHVSDLVGPEGCVYAVEFSHRSGRDLVNMAKKRTNVIPIIEDARHPAKYRMLVGMVDVIFSDVAQPDQARILALNASYFLKSGGHFVISIKANCIDSTVPAEAVFQTEVKKLQQEQFKPAEQVTLEPFERDHACVVGGYRMPKKPKAATAA
binding [11]: binds weakly
